Experiment: general procedure: Boc solid-phase peptide synthesis; BOC-Phe-O-resin (resin=CH2-polystyrene 1% crosslinked with p-divinylbenzene)
Details: late stage modification step

cyclo(Trp-Lys-δ-Orn(COCH2 CH2 CH2 Ph)-Phe)
final HPLC purity: HPLC (97%)
